In article PMC8390757:

Biological target: FLAG-tagged PTENα (bait of the FLAG pull-down with mass spectrometry) (UniProt P60484)
Assay: affinity purification with mass spectrometry; FLAG-tagged PTENα expressed in cells treated with 100 μM H2O2; whole-cell extracts on FLAG-beads, washed four times with PBS with 0.1% NP40, eluted with 3× FLAG-peptide, SDS-PAGE, in-gel trypsin digestion, LTQ Orbitrap Elite

B1: ZC3HAV1 (protein, UniProt Q3UPF5 1-996)
chain: MTDPEVFCFITKILCAHGGRMTLEELLGEISLPEAQLYELLKAAGPDRFVLLETGDQAGITRSVVATTRARVCRRKYCQRPCDSLHLCKLNLLGRCHYAQSQRNLCKYSHDVLSEQNFQVLKNHELSGLNQEELAVLLVQSDPFFMPEICKSYKGEGRKQICGQPQPCERLHICEHFTRGNCSYLNCLRSHNLMDRKVLAIMREHGLSSDVVQNIQDICNNKHTRRNPPSMRAPHPHRRGGAHRDRSKSRDRFHHNSLEVLSTVSPLGSGPPSPDVTGCKDPLEDVSADVTQKFKYLGTQDRAQLSSVSSKAAGVRGPSQMRASQEFLEDGDPDGLFSRNRSDSSTSRTSAAGFPLVAAQRNEAGAMKMGMPSGHHVEVKGKNEDIDRVPFLNSYIDGVTMEEATVSGILGKRATDNGLEEMILSSNHQKSVAKTQDPQTAGRITDSGQDTAFLHSKYEENPAWPGTSTHNGPNGFSQIMDETPNVSKSSPTGFGIKSAVTGGKEAVYSGVQSLRSHVLAMPGETTTPVQGSNRLPPSPLSSSTSHRVAASGSPGKSSTHASVSPASEPSRMMMMMSDPAEYSLCYIVNPVSPRMDDHGLKEICLDHLYRGCQQVNCNKNHFHLPYRWQLFILPTWMDFQDMEYIERAYCDPQIEIIVIEKHRINFKKMTCDSYPIRRLSTPSFVEKTLNSVFTTKWLWYWRNELNEYTQYGHESPSHTSSEINSAYLESFFHSCPRGVLQFHAGSQNYELSFQGMIQTNIASKTQRHVVRRPVFVSSKDVEQKRRGPDHQPVMPQADALTLFSSPQRNASTVSSNEYEFIELNNQDEEYAKISEQFKASMKQFKIVTIKRIWNQKLWDTFERKKQKMKNKTEMFLFHAVGRIHMDYICKNNFEWILHGNREIRYGKGNYFTKEAMYSHKSCSYDSRGTVMFVARVLVGSVIEGNMTLSSPPALYDSCVDTRLNPSVFVIFRKEQIYPEYVIEYMELEKEKGCIIS
binding: binds

No constants are given. Whether binding was seen depends on the method and setting. Binding seen in cells or lysates may run through a third protein. These calls come from enrichment with a bait or labelling near it, and not all partners need be listed.
